Data from patent US9896489B2, “Family of synthetic polynucleotide-binding peptides and uses thereof” (Eastern Virginia Medical School, priority 2012, dated 2018).
No constants are given. Whether binding was seen depends on the method and setting. Some results given as binding are weak or reduced against the parent protein; the word gives no strength. Sequences can lack the tags named with a protein.

Experiments:
[1] = biological target: T1, p110^RB, the hypophosphorylated form of retinoblastoma protein (Rb) (UniProt P06400); experiment: GST pull-down, anti-Rb blot
T1 sequence (looked up): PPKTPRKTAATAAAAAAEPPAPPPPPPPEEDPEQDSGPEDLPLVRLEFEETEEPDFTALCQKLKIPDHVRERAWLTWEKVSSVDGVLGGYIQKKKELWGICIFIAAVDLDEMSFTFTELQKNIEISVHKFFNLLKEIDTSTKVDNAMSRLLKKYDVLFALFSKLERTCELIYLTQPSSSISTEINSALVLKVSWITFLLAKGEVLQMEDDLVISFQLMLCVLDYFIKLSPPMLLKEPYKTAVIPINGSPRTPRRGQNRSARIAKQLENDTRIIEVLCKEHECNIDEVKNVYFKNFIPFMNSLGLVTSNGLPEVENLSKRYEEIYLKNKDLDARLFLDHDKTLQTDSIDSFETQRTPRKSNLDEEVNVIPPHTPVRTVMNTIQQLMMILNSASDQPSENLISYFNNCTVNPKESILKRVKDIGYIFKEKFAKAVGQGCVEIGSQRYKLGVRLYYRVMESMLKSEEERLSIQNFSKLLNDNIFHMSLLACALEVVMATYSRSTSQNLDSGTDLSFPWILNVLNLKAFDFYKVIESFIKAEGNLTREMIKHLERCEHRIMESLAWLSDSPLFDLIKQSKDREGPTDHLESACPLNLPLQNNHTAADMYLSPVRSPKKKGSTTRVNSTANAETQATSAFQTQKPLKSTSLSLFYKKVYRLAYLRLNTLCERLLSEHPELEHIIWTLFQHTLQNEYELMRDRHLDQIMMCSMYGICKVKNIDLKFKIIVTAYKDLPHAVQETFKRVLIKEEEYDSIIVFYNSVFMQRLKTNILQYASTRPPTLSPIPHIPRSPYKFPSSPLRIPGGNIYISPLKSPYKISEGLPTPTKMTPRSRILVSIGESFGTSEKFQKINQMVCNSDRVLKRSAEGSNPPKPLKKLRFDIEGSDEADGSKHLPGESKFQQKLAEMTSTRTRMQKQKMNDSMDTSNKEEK

[2] = biological target: T1, p110^RB, the hypophosphorylated form of retinoblastoma protein (Rb); experiment: GST pull-down on glutathione-agarose beads, blot probed with anti-Rb monoclonal antibody
[3] = biological target: T1, p110^RB, the hypophosphorylated form of retinoblastoma protein (Rb); experiment: GST pull-down, anti-Rb blot (FIG. 5 legend)

Measured: binding

B1: GST-tagged Purα (Gst-Purα) (protein, UniProt Q00577 1-322, looked up, not shown: a dimerising Fc or GST)
chain: MADRDSGSEQGGAALGSGGSLGHPGSGSGSGGGGGGGGGGGGSGGGGGGAPGGLQHETQELASKRVDIQNKRFYLDVKQNAKGRFLKIAEVGAGGNKSRLTLSMSVAVEFRDYLGDFIEHYAQLGPSQPPDLAQAQDEPRRALKSEFLVRENRKYYMDLKENQRGRFLRIRQTVNRGPGLGSTQGQTIALPAQGLIEFRDALAKLIDDYGVEEEPAELPEGTSLTVDNKRFFFDVGSNKYGVFMRVSEVKPTYRNSITVPYKVWAKFGHTFCKYSEEMKKIQEKQREKRAACEQLHQQQQQQQEETAAATLLLQGEEEGEED
binds: all assays above
